Reference: paper PMC8873275
These are yes or no findings as the source states them, for the method shown. Binding seen in cells or lysates may run through a third protein. Some results given as binding are weak or reduced against the parent protein; the word gives no strength. For part of these data: Where a sequence is shown, tags or fusion partners need not be part of it.

Sequences of proteins named here, by UniProt entry; tags and fusion partners are left off.
UniProt P46937: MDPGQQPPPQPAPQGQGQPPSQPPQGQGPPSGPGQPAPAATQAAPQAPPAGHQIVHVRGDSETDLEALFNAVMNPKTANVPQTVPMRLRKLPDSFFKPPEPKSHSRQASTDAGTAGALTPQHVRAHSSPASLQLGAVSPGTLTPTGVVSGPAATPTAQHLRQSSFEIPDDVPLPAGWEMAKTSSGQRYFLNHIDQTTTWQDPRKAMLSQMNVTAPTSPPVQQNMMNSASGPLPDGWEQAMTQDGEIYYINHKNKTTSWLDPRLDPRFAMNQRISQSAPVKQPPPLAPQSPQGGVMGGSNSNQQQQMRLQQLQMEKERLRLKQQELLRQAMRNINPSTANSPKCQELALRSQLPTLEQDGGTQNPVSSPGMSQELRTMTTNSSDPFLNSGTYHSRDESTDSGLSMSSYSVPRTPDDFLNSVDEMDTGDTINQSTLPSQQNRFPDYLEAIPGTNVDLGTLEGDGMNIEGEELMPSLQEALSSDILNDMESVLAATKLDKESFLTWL
UniProt Q969U6: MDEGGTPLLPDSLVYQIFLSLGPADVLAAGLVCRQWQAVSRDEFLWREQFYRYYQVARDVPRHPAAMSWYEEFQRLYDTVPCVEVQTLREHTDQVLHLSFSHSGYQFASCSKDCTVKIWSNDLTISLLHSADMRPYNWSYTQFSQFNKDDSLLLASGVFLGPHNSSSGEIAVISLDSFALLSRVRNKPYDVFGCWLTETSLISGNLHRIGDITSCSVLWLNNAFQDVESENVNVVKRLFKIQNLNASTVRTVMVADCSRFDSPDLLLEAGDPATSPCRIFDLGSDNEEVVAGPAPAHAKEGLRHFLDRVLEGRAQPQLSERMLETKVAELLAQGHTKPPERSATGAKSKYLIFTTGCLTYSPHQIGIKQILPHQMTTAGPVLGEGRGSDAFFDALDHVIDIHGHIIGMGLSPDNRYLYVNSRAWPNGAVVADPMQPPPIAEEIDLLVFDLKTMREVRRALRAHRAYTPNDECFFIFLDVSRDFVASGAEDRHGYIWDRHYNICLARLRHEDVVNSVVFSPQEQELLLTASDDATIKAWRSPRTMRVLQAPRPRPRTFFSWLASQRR

Legend:
Assay in all cases: co-IP; HEK-293T cells transfected with myc-FBXW5 (or its ΔF-box or ΔWD deletion mutants) and flag-LATS1, flag-LATS2 or flag-YAP1 plasmids; procedure as in ref. 9
[1] = target: Flag-YAP1 (yes-associated protein) (UniProt P46937)
[2] = target: T1, Flag-LATS2 (large tumor suppressor kinase 2) (UniProt Q9NRM7)
T1 sequence: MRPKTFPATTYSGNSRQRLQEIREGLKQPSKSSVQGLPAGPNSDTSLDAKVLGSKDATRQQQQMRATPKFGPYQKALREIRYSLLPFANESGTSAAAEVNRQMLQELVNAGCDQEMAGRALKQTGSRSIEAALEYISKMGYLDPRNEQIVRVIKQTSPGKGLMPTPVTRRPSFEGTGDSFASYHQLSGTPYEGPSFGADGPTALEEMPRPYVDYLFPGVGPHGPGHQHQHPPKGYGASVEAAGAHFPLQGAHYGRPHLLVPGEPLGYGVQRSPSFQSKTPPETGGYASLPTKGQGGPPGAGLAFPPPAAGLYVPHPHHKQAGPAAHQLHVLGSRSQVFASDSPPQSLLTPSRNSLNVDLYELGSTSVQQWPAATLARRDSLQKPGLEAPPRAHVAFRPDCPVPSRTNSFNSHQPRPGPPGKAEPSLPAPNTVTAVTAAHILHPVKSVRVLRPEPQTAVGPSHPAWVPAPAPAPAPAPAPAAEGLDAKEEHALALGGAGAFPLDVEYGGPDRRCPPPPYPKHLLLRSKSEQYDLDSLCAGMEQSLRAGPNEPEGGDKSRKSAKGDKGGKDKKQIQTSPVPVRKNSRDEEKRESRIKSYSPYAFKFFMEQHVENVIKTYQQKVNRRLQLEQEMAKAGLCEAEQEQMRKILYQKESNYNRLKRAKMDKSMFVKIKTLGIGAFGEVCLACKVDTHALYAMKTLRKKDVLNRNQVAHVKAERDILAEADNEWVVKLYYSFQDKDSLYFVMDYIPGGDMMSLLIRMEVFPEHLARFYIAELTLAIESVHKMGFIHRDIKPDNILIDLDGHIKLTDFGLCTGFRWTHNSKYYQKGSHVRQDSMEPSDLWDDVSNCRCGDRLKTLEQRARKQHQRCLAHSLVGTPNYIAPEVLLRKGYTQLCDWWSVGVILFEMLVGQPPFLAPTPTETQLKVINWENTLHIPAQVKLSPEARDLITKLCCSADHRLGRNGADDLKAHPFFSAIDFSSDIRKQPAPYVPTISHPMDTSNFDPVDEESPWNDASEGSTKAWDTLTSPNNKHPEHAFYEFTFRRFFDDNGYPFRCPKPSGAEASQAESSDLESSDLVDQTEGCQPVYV

[3] = target: T2, Flag-LATS1 (large tumor suppressor kinase 1) (UniProt O95835)
T2 sequence: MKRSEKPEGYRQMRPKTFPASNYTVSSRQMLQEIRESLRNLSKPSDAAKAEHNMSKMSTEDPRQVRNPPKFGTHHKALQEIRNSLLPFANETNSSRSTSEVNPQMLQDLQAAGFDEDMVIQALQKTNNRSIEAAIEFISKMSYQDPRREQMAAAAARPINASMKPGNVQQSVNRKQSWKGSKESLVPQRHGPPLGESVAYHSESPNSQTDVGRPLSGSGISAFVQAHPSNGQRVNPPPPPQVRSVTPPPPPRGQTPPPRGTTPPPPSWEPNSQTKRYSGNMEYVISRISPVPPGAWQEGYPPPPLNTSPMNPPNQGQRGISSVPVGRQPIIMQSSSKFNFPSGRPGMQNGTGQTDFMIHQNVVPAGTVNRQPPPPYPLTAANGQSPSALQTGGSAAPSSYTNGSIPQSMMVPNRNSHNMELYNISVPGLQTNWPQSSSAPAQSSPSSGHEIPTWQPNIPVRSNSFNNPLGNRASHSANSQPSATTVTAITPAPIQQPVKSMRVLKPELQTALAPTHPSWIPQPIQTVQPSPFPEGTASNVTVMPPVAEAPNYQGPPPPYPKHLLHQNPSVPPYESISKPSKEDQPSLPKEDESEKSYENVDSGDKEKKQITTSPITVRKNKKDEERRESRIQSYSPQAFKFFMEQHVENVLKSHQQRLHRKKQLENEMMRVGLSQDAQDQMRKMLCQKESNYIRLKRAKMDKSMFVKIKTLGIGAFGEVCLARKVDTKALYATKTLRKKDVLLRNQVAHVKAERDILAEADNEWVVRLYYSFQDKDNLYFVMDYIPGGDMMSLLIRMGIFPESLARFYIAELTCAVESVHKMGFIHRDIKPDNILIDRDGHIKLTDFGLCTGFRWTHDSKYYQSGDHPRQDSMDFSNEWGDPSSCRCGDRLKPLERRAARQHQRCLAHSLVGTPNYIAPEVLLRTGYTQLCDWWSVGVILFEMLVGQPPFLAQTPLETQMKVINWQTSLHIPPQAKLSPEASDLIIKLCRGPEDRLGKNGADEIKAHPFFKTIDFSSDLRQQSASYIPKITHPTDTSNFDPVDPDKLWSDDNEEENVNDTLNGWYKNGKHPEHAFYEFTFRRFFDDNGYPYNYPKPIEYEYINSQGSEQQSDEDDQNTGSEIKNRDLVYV

- binding [1]: no binding
- binding [2]: no binding
- binding [3]: binds
Substance: Myc-FBXW5 (F-box and WD repeat domain-containing 5) (from UniProt Q969U6 1-566)
